These results are taken from publication PMC13053990.

The test deals with EGFP-miPEP8 (Enhanced Green Fluorescent Protein-miPEP8) fused protein (Drosophila melanogaster). The test is described as follows: affinity purification with mass spectrometry; GFP-Trap agarose beads O/N at 4 °C on lysates of S2 cells transfected with EGFP, EGFP-miPEP8 or EGFP-miPEP8 SLiMmt; lysis buffer 50 mM Tris pH 7.5, 50 mM NaCl, 5% glycerol, 0.1% Igepal; four washes; LC-MS/MS, MaxQuant.

No constants are given. Whether binding was seen depends on the method and setting. In cells and extracts the contact can be indirect. Here binding means that the protein was enriched with, or labelled near, the bait; the list need not be complete.

B1: ref(2)P (refractory to sigma P), the orthologue of the human p62/Sequestosome 1 protein (protein, UniProt P14199 1-599)
chain: MPEKLLKITYQGAGPQKKINAYLRMPSQNYTILRREIELYLFQERQLPKCDVRTFWIDADKDEIEIVNQNDYEIFLAKCESNMHVQVAPLAPVEEPKATKQEGSSANAEAPSVDDPSNFTIHDAVECDGCGLAPLIGFRYKCVQCSNYDLCQKCELAHKHPEHLMLRMPTNNGPGMVDAWFTGPGLGRRSGRRSRGHCPFQETNQADPAGEPARDSRRERRQARRHAGVLTQFVEMMTNLPLNTTTATAPAEPQKPKAAEQTESPPQAEPTVTAEKAAESEAKPTEPKKVNTDQSVPRTEDPVTTPRSTQPTTPVINLDNISQIVPPEYMSAGIEILNNFSEMFSKIIDTTEGGDSGIFAPSTTPSAENKKPEEQGQSSGQSGASSANQSAVPSAAPSANQSNVPSANQSATPSISGSIPDAQLETEPLNPKPSETTTETEQERRRSDSLDPEWQLIDNAYSANNSNLINLDTTNPTAAPQEPVRDFGQLGELLRQHMNEEARVEQASANTQTAQVDTVSTSTSTTSVTTNSVGTSPAAPDDKRTVPVYHTDESINKSIHAMMAMGFSNEGAWLTQLLESVQGNISAALDVMNVSQNRN
B1: the binding entry is “binds”.

B2: PI3K92 E (Phosphatidylinositol 3-kinase 92E) (protein, UniProt P91634 1-1088)
chain: MNMMDNRALAYVAHQPKYETPPEEAEPPCMRFSVNLWKNEMLNWVDLICLLPNGFLLELRVNPANTIQVIKVEMVNQAKQMPLGYVIKEACEYQVYGISTFNIEPYTDETKRLSEVQPYFGILSLGERTDTTSFSSDYELTKMVNGMIGTTFDHNRTHGSPEIDDFRLYMTQTCDNIELERSAYTWQQRLLYEHPLRLANSTKMPELIRERHPTRTFLIVVKNENDQSTFTLSVNEQDTPFSLTESTLQKMNRSQMKMNDRTSDYILKVSGRDEYLLGDYPLIQFLYIQEMLSDSAVPNVVLQSVYRLESYINHHNEQAMVTKRPLPKKRTVHLHKSISSLWDMGNYFQLTLHSISNVNFDKTRALKVGVHVCLYHGDKKLCAQRSTDSPNGNFDTFLFNDLVMDFDIQMRNLPRMTRLCIVIFEVTKMSRSKKSSNNKDIALKDVPYNKNPLAWVNTTIFDHKDILRTGRHTLYTWTYADDIQSVEVFHPLGTIEPNPRKEECALVDLTFLSSGTGTVRYPSEEVVLQYAADREQVNRLQRQLAGPEKPIKELKELMANYTGLDKIYEMVDQDRNAIWERRNDILRELPEELSILLHCVYWKERDDVADMWYLLKQWPLISIERSLELLDYAYPDPAVRRFAIRCLHFLKDEDLLLYLLQLVQAIKHESYLESDLVVFLLERALRNQRIGHYFFWHLRSEMQTPSMQTRFGLLLEVYLKGCKHHVAPLRKQLHVLEKLKQGSLIAKKGSKEKVKTMLQDFLRDQRNSAVFQNIQNPLNPSFRCSGVTPDRCKVMDSKMRPLWVVFENADVNASDVHIIFKNGDDLRQDMLTLQMLRVMDQLWKRDGMDFRMNIYNCISMEKSLGMIEVVRHAETIANIQKEKGMFSATSPFKKGSLLSWLKEHNKPADKLNKAINEFTLSCAGYCVATYVLGVADRHSDNIMVKRNGQLFHIDFGHILGHFKEKLGVRRERVPFVLTHDFVYVINKGFNDRESKEFCHFQELCERAFLVLRKHGCLILSLFSMMISTGLPELSSEKDLDYLRETLVLDYTEEKAREHFRAKFSEALANSWKTSLNWASHNFSKNNKQ
For B2, the binding entry is listed as “binds”.
